This data set deals with Cdx4 (Danio rerio) (UniProt A8KBT9). Description: EMSA. The conditions noted are these: wild-type binding implied by statement that F170L prevents binding; gel not shown in text; protein translated in vitro.

Protein sequences, listed by entry. Tags and fused reporters are not part of them.
UniProt A8KBT9, entry or part of it: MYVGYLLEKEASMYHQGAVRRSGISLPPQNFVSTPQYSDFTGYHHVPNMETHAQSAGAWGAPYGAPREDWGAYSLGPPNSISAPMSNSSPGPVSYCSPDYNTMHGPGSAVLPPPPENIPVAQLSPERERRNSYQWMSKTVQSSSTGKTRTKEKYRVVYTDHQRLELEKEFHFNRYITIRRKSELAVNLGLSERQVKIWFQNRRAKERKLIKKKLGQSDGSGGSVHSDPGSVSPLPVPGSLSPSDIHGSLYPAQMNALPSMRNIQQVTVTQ

The exact form of at least one protein or probe is not confirmed.

As for “GAGAAATTTATATTGT (double strand) [consensus cdx binding site probe]”, the binding result was “binds”.

Source of the values: patent US20090004163.
